Drawing on patent EP0850950A1 (DAIICHI PHARMACEUTICAL CO., LTD., priority 1995, dated 1998), this text covers step yield for four substances.

Some peptides are written in HELM: one residue between dots, names in brackets for other building blocks, links after the first $.

This data set in a line: peptide synthesis. As to conditions: late stage modification step.

The substance “H2NC(NH)-Tyr-(R)-PGPA-Phe-MeβAla-OH·diacetate” had a step yield (diacetate) of 26.0%.

In turn, “PEPTIDE1{[Amidino].[DMT].[dR].F.[MebAla]}$$$$V2.0” yielded a step yield (on protected peptide, diacetate) of 83%.

As for “H2NC(NH)-Tyr-D-(N-Me)Arg-Phe-MeβAla-OH·diacetate”, the step yield (acetate) was 83%.

As for Boc-Tyr-D-AMSB-Phe-MeβAla-OH, for the setting “acetate”, the step yield was determined as 99.5%.
